Test [1] concerns the target T1, MDH1 (yeast mitochondrial malate dehydrogenase) fused with the small nanoBiT subunit (SmBiT) (Saccharomyces cerevisiae) (UniProt P17505).
T1 sequence: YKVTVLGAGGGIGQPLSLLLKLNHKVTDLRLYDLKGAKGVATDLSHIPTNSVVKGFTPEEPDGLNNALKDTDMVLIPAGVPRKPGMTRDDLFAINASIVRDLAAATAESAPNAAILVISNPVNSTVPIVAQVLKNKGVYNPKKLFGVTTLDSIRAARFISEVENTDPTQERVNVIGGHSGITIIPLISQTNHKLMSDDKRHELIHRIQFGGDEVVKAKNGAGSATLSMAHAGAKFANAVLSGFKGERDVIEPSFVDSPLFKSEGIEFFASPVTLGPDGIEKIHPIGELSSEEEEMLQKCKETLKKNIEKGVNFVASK
Description: split reporter; nanoBiT split luciferase in living yeast cells (MDH1-SmBiT, CIT1-LgBiT from the native loci), furimazine, 28°C; cells in SD-Raff or SD-Acet; treatments: glucose, fructose, sucrose, galactose, phosphate, acetate, aminooxyacetate, malonate, cyanide, antimycin, oligomycin.

Test [2] has as its target T2, recombinant yeast MDH1, fluorescently labeled (yeast (Saccharomyces cerevisiae)) (UniProt P17505).
T2 sequence (chain, labeled with Protein Labeling Kit RED-NHS 2nd Generation (NanoTemper)): T1 sequence
The test can be described thus: MST; labeled MDH1 as target, CIT1 titrated; MST buffer (50 mM Tris-HCl pH 8, 150 mM NaCl, 10 mM MgCl2, 5 mM DTT, 0.05% Tween-20) with 10 mM malate, fumarate, α-ketoglutarate, succinate, aspartate or glutamate, or with ATP (5, 2.5, 1.25 mM); both purified.

No constants are given. Whether binding was seen depends on the method and setting. For some assays here: Binding seen in cells or lysates may run through a third protein. Some entries that bind do so weakly or less than the wild type. Tags and fused reporters may be left off the sequences shown.

B1: CIT1 (yeast mitochondrial citrate synthase) fused with the large nanoBiT subunit (LgBiT) (enzyme, UniProt P00890 38-479)
chain: SSASEQTLKERFAEIIPAKAEEIKKFKKEHGKTVIGEVLLEQAYGGMRGIKGLVWEGSVLDPEEGIRFRGRTIPEIQRELPKAEGSTEPLPEALFWLLLTGEIPTDAQVKALSADLAARSEIPEHVIQLLDSLPKDLHPMAQFSIAVTALESESKFAKAYAQGVSKKEYWSYTFEDSLDLLGKLPVIASKIYRNVFKDGKITSTDPNADYGKNLAQLLGYENKDFIDLMRLYLTIHSDHEGGNVSAHTTHLVGSALSSPYLSLAAGLNGLAGPLHGRANQEVLEWLFKLREEVKGDYSKETIEKYLWDTLNAGRVVPGYGHAVLRKTDPRYTAQREFALKHFPDYELFKLVSTIYEVAPGVLTKHGKTKNPWPNVDSHSGVLLQYYGLTEASFYTVLFGVARAIGVLPQLIIDRAVGAPIERPKSFSTEKYKELVKKIESKN
In the case of B1, the binding result in test [1] is “binds”.

B2: recombinant yeast CIT1 (enzyme)
chain: B1 chain
For B2, the binding entry in test [2] is given as “binds”.

Source of the values: doi:10.1101/2025.06.16.659985, “Dynamic assembly of malate dehydrogenase-citrate synthase multienzyme complex in the mitochondria” (bioRxiv, 2025).
